Results: paper doi:10.1101/2020.05.30.124925

Sequences of proteins named here, by UniProt entry; tags and fusion partners are left off.
UniProt P38903: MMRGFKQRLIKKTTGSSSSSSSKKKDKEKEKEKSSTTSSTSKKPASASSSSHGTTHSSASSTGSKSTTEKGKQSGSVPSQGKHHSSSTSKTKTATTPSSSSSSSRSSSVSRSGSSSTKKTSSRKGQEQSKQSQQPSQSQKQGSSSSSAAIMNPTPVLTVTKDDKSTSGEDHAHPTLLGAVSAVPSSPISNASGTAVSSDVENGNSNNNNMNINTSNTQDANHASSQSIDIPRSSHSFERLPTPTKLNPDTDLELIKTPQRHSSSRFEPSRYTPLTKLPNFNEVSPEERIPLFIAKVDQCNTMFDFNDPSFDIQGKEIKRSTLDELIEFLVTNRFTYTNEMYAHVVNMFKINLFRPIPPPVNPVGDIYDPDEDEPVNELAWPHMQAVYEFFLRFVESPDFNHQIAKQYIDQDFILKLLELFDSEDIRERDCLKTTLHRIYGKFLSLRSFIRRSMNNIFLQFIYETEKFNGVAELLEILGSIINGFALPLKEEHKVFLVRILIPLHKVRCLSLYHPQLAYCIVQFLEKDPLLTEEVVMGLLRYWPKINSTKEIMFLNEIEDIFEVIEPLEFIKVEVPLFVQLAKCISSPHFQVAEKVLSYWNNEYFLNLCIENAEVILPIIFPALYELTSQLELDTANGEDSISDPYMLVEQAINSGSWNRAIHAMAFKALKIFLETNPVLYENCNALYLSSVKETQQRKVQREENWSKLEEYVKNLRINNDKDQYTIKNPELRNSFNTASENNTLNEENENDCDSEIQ

Biological target: Rts1-HKMT-myc (S. cerevisiae) (UniProt P38903)
Experiment: proximity labelling

B1: Rck2-protA-H3-HA (protein, UniProt P38623 1-610)
chain: MLKIKALFSKKKPDQADLSQESKKPFKGKTRSSGTNNKDVSQITSSPKKSFQDKNIVQYPSVVADDHHMKSLTDELVTTIDSDSSPSDNITTENVETVTSVPAIDVHESSEGQLSSDPLISDESLSEQSEIISDIQDDSTDDDNMEDEIPEKSFLEQKELIGYKLINKIGEGAFSKVFRAIPAKNSSNEFLTKNYKAVAIKVIKKADLSSINGDHRKKDKGKDSTKTSSRDQVLKEVALHKTVSAGCSQIVAFIDFQETDSYYYIIQELLTGGEIFGEIVRLTYFSEDLSRHVIKQLALAVKHMHSLGVVHRDIKPENLLFEPIEFTRSIKPKLRKSDDPQTKADEGIFTPGVGGGGIGIVKLADFGLSKQIFSKNTKTPCGTVGYTAPEVVKDEHYSMKVDMWGIGCVLYTMLCGFPPFYDEKIDTLTEKISRGEYTFLKPWWDEISAGAKNAVAKLLELEPSKRYDIDQFLDDPWLNTFDCLPKEGESSQKKAGTSERRHPHKKQFQLFQRDSSLLFSPAAVAMRDAFDIGNAVKRTEEDRMGTRGGLGSLAEDEELEDSYSGAQGDEQLEQNMFQLTLDTSTILQRRKKVQENDVGPTIPISATIRE
- binding: binds

Results are given in words; binding and its absence hold for the method and conditions named. Binding seen in cells or lysates may run through a third protein. These calls come from enrichment with a bait or labelling near it, and not all partners need be listed. Sequences can lack the tags named with a protein.
